Experimental data: article PMC6814797 (Scientific Reports, 2019)
Some peptides are written in HELM: one residue between dots, names in brackets for other building blocks, links after the first $.

Test: peptide made by a vendor (peptide synthesis; 4-[2,4-dimethoxyphenyl-N-(9-fluorenylmethoxycarbonyl)aminomethyl]phenoxy resin; HBTU/HOAt/DIEA (on-resin cyclization))
Settings: conjugation step, analytical HPLC

PEPTIDE1{F.Y.[Lys(iPr)].[dR].[2Nal].G.[dE].[Lys(iPr)].C.[am]}|CHEM1{[MalDOTA]}$PEPTIDE1,PEPTIDE1,1:R1-7:R3|PEPTIDE1,CHEM1,9:R3-1:R1$$$V2.0
final HPLC purity: 98.48%
